Assay results: paper PMC5467174
No constants are given. Whether binding was seen depends on the method and setting. Binding seen in cells or lysates may run through a third protein. Some entries that bind do so weakly or less than the wild type. For part of these data: Where a sequence is shown, tags or fusion partners need not be part of it.

By UniProt entry, the sequences of proteins in these tests, tags left out.
UniProt P62258: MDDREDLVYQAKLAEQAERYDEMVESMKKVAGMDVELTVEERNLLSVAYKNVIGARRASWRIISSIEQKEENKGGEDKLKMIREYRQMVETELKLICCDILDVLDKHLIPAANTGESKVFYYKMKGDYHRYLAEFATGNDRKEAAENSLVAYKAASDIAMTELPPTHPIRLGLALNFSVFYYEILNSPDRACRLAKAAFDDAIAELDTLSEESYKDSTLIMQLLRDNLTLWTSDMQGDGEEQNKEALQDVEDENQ
UniProt Q14008: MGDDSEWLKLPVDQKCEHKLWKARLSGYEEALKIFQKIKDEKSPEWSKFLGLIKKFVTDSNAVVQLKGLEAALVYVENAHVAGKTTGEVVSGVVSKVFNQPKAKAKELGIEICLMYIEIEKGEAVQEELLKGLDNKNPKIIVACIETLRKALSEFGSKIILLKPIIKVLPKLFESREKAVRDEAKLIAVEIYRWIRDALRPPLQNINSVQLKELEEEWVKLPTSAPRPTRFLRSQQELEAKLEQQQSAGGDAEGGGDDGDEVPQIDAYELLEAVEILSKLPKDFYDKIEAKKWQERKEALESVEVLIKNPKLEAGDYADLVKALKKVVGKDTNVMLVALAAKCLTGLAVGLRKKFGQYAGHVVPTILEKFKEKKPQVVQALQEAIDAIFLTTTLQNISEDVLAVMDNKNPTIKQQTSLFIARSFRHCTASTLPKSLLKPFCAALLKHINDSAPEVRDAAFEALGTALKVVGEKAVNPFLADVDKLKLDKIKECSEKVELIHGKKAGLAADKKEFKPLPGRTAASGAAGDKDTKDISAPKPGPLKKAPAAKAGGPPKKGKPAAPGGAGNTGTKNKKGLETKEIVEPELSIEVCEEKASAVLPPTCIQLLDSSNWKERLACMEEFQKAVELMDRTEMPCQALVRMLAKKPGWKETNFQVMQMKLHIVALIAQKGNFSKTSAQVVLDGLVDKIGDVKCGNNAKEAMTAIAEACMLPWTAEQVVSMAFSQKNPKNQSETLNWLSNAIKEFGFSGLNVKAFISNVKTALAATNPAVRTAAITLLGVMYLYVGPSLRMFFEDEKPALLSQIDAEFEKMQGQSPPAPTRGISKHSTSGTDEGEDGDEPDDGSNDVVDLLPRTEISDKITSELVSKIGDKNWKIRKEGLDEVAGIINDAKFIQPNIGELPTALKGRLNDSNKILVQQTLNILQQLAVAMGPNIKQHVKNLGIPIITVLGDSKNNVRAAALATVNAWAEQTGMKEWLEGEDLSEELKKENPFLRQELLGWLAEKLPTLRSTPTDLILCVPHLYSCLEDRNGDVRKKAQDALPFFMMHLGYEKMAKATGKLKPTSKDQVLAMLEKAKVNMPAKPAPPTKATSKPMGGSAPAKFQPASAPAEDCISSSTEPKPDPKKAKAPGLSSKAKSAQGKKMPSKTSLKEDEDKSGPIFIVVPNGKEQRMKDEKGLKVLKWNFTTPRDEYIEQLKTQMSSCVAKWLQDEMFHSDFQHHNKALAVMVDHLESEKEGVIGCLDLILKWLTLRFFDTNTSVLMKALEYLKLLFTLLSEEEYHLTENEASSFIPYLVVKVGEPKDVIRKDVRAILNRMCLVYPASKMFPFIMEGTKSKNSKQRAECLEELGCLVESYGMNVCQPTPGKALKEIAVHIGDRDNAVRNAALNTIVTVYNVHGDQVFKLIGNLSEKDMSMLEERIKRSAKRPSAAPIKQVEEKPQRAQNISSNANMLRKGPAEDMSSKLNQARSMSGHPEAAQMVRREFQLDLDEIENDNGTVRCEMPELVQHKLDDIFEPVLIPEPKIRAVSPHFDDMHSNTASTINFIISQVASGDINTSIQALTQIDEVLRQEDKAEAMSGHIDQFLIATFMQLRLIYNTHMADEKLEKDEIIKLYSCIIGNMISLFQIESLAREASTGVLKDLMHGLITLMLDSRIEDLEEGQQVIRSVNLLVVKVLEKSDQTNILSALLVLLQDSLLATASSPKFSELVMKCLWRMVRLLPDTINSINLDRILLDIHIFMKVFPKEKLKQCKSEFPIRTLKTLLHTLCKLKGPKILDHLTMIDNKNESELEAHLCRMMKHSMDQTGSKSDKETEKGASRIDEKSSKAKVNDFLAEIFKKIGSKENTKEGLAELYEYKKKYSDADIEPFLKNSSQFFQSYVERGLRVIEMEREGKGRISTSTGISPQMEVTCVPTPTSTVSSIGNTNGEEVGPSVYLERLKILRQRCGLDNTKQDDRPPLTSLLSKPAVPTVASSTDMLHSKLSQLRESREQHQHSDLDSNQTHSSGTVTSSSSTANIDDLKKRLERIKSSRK
UniProt Q9UPY3: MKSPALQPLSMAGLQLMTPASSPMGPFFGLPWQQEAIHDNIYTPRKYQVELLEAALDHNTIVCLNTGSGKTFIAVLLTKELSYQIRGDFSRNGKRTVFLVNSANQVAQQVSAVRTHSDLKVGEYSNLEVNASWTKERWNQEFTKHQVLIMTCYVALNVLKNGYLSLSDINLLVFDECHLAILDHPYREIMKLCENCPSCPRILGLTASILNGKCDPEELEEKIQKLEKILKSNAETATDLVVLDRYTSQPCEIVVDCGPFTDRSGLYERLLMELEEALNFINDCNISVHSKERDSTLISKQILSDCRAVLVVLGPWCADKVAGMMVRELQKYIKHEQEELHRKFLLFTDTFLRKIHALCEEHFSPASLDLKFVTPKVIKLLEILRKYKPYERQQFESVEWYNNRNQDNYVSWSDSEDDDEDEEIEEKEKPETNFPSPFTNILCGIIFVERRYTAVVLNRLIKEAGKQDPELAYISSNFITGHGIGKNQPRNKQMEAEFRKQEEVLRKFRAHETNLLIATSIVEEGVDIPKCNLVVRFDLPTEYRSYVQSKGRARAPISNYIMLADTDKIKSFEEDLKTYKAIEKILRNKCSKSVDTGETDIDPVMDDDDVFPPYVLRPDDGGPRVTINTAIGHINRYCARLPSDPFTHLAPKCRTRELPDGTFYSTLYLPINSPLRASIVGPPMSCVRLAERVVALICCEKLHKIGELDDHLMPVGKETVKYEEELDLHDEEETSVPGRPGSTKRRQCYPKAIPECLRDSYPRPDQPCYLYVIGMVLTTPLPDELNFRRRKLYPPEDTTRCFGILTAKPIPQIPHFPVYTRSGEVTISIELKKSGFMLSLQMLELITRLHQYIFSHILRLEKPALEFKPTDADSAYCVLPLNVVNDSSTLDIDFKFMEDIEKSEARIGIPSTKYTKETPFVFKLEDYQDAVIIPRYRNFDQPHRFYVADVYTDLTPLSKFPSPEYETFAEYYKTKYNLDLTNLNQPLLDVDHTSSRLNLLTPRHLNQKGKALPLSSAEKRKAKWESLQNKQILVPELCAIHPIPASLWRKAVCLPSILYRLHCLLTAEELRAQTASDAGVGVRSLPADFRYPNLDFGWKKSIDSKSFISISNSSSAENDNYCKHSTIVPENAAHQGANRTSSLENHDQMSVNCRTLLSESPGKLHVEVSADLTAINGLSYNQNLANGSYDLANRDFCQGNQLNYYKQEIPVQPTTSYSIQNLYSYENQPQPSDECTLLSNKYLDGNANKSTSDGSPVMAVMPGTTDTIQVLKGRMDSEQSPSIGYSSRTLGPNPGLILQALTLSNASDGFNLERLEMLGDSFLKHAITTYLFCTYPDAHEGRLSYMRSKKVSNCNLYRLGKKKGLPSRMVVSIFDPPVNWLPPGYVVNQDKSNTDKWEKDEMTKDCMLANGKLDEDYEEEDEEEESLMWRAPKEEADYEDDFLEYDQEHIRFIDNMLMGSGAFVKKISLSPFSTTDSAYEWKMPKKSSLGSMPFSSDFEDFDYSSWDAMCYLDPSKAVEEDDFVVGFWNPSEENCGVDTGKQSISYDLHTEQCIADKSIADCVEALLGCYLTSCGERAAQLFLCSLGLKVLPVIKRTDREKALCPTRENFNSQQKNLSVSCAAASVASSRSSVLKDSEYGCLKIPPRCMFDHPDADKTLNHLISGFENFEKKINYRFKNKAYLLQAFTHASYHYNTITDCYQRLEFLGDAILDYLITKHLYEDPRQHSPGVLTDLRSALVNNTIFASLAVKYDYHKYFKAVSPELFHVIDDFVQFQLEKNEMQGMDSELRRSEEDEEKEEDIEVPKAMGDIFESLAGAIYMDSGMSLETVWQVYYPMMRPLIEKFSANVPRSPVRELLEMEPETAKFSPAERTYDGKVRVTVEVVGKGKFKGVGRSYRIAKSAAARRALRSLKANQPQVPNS
UniProt Q8NDV7: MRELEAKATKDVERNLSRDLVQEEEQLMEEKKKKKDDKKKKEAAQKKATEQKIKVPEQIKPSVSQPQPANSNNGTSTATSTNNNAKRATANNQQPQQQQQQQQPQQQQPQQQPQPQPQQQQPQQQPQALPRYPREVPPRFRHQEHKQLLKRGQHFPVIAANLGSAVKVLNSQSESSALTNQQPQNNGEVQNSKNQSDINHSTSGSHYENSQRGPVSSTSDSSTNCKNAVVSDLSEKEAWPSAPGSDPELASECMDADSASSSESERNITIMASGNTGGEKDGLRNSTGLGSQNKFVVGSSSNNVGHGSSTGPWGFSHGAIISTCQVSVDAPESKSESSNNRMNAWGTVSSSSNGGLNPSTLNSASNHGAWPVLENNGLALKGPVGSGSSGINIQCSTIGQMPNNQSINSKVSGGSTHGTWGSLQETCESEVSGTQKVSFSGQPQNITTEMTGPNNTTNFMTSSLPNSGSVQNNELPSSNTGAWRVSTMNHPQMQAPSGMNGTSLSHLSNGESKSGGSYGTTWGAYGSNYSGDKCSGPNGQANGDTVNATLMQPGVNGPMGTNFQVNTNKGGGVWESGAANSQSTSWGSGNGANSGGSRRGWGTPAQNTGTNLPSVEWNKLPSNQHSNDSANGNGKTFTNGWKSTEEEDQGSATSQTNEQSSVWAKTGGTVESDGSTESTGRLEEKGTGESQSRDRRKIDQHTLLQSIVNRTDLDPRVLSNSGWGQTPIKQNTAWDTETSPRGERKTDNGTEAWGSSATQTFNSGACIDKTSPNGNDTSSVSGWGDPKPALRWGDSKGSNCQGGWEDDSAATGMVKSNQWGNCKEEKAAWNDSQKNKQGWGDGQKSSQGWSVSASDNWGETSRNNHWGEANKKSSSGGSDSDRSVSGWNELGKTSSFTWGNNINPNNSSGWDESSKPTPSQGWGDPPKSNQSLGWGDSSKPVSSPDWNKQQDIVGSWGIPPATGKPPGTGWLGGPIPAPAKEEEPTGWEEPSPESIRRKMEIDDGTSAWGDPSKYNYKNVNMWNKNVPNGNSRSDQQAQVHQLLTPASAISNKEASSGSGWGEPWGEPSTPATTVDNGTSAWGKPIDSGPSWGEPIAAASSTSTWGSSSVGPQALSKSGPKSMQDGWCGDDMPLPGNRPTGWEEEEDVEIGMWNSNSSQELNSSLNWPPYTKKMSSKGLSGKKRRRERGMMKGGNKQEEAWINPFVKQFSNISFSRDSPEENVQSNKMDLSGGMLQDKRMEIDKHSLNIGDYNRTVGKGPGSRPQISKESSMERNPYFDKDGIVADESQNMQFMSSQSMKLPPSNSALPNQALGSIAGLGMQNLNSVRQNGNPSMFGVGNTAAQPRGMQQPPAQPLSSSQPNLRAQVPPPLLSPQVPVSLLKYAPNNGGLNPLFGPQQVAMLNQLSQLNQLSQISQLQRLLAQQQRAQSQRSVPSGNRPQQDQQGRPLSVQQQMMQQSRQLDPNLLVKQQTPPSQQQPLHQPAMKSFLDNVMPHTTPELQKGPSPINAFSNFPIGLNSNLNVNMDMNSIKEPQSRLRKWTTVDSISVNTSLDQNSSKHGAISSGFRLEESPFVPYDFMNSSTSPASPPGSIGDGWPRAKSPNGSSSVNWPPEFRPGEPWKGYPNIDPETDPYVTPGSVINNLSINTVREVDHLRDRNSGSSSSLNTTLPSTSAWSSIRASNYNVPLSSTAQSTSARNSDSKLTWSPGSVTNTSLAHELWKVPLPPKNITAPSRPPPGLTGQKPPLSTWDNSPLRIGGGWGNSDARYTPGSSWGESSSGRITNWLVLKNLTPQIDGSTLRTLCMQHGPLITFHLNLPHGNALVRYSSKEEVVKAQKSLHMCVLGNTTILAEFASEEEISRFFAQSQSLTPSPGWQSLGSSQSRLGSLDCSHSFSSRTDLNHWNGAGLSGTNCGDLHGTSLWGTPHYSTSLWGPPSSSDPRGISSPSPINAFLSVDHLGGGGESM

Key:
FLAG-CBirA*-Cdc25C WT [1] = biological target: T1, FLAG-CBirA*-Cdc25C WT (UniProt P30307); assay: co-IP; lysates of HeLa cells transfected with the Myc-NBirA* and FLAG-CBirA* fusions; anti-Myc or anti-FLAG antibody on magnetic beads, overnight at 4 °C, washes with 50 mM Tris pH 7.4, 300 mM NaCl, 1 mM MgCl2, 0.5% NP-40; western blot; untransfected cells as control
T1 sequence: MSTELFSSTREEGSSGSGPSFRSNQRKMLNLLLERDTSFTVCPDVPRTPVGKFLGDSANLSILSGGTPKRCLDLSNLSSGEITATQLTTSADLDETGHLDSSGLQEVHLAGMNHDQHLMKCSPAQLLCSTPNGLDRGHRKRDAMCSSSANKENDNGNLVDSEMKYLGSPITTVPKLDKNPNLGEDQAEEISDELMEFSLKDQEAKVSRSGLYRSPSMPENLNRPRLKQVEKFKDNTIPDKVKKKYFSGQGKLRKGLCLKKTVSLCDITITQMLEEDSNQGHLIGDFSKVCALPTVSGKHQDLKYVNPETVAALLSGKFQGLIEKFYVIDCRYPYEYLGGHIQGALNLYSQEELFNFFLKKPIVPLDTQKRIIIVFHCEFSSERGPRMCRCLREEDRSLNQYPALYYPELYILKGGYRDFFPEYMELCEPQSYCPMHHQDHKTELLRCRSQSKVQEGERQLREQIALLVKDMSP

myc-NBirA*-14-3-3ɛ = myc-NBirA*-14-3-3ɛ (UniProt P62258); assay: as above
CBirA*-Ago2 = CBirA*-Ago2 (UniProt Q9UKV8); assay: split reporter; split-BioID protein fragment complementation (BirA* split at E256/G257): NBirA* and CBirA* fusions co-expressed in transiently transfected HeLa 11ht cells; 50 μM biotin, 200 ng/ml doxycycline, 24 h, no rapamycin; biotinylation in lysates read on blots with Alexa680-labelled streptavidin
[2] = biological target: T2, GIGYF2 (human (endogenous in HeLa)) (UniProt Q6Y7W6); assay: co-IP; endogenous proteins from HeLa 11ht lysate pre-treated with micrococcal nuclease (14 gel units per μl, 1.5 mM CaCl2, 25 min at RT); anti-GIGYF2 on beads; western blot
T2 sequence: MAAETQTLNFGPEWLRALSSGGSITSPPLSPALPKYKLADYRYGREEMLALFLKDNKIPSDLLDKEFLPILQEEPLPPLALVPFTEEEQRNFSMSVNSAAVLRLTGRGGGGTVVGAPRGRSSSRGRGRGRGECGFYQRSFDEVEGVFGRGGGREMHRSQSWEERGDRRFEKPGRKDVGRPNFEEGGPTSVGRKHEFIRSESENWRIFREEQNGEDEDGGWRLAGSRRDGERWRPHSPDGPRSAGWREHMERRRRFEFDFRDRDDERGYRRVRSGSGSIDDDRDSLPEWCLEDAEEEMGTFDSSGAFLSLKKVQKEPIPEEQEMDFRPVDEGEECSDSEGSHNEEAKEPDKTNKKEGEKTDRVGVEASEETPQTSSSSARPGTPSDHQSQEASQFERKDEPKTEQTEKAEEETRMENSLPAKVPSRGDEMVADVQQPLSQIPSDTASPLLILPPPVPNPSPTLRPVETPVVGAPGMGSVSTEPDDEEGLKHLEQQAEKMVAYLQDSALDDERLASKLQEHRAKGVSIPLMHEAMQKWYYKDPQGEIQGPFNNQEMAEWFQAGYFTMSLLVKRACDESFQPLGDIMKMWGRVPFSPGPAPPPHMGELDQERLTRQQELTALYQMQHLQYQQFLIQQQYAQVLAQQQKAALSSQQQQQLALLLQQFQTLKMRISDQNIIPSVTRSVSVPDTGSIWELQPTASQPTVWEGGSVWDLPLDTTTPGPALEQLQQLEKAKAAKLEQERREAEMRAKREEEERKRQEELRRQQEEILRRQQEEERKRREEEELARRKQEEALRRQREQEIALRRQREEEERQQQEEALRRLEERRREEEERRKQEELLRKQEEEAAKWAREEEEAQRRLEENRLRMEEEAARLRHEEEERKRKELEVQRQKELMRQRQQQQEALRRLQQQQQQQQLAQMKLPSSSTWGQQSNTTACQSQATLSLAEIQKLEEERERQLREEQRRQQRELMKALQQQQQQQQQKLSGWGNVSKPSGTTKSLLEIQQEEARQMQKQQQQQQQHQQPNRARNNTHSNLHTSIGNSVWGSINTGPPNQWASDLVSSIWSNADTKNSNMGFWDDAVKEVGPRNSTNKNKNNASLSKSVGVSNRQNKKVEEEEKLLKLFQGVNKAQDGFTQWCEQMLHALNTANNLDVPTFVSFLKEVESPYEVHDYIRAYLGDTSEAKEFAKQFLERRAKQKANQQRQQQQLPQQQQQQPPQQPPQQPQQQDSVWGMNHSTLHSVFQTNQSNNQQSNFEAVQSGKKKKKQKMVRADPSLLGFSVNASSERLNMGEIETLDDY

[3] = biological target: T2, GIGYF2 (human (endogenous in HeLa)); assay: co-IP; endogenous proteins from HeLa 11ht lysate, without micrococcal nuclease; anti-Ago2, anti-TNRC6A, anti-GIGYF2 or control IgG (5 μg each) on beads; western blot
FLAG-CBirA*-Cdc25C WT [4] = biological target: T1, FLAG-CBirA*-Cdc25C WT; assay: split reporter; split-BioID protein fragment complementation (BirA* split at E256/G257): NBirA* and CBirA* fusions co-expressed in transiently transfected HeLa 11ht cells; 50 μM biotin, 200 ng/ml doxycycline, 24 h, no rapamycin; biotinylation in lysates read on blots with Alexa680-labelled streptavidin

CKAP5 (from UniProt Q14008 1-2032)
binding (FLAG-CBirA*-Cdc25C WT [1]): no binding | binding (myc-NBirA*-14-3-3ɛ): no binding

NBirA*-Dicer (from UniProt Q9UPY3 1-1922) (enzyme)
binding (CBirA*-Ago2): binds

TNRC6A (from UniProt Q8NDV7 1-1962)
binding [2]: binds weakly | binding [3]: binds weakly

myc-NBirA*-14-3-3ɛ (from UniProt P62258 1-255)
binding (FLAG-CBirA*-Cdc25C WT [4]): binds
